The list shows a part of the results. Values are raw readings; no control value is given beside them.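 First-pass screen: polymyxin B was added at a level that permeabilizes the Salmonella outer membrane while sparing the inner membrane. DMSO wells, with and without polymyxin B, defined maximum growth. Because plates differed from one another, each plate's data were ranked separately and the compounds with the lowest OD600 were carried forward as hits.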
Tested on: Salmonella enterica serovar Typhimurium SL1344
Test: bacterial growth OD600 after 18 h with compound and polymyxin B; higher = more bacterial growth (less inhibition)
Details: 50 µM, Mueller-Hinton broth

SMILES | bacterial growth OD600 (polymyxin B 1 µg/mL) | bacterial growth OD600 (polymyxin B 0.75 µg/mL)
O=C(Cn1cccn1)NC1CC(=O)N(CCc2cccc(Cl)c2)C1 (stereo unspecified) | 0.978 | 
CC(C)NC(=O)NCc1cccnc1Oc1ccccc1F |  | 0.805
CCC1CN(CC(=O)NCCCc2cccnc2)Cc2cc(OC)ccc2O1 (stereo unspecified) |  | 0.835
Cc1nc(N(C)C2CCCCC2)ncc1C(C)NCc1nc(C)c(C)nc1C (stereo unspecified) |  | 0.475
CC(C)CCC1(C2CCN(C(=O)/C(F)=C/c3ccccc3)CC2)NC(=O)N(Cc2ccccn2)C1=O (stereo unspecified) |  | 0.001
COc1cc(CC2(CCC(=O)N3CC4(C)CC3CC(C)(C)C4)CCC(=O)N2)ccc1F (stereo unspecified) |  | 0.953
Cc1nc(CC(=O)NC2CCCc3c2cnn3-c2ccc(F)cc2F)cs1 (stereo unspecified) |  | 0.776
O=C(NCc1cccc(Cl)c1)c1cccc(OC2CCN(C(=O)C3CC3)CC2)c1 | 0.796 | 
CCN(CC1CCCO1)C(=O)C1CCCN(c2nc(C)c3ccc(OC)cc3n2)C1 (stereo unspecified) |  | 0.637
CCC(=O)N1CCC(C(=O)Nc2cccc(-c3nnc(C)s3)c2)CC1 | 0.876 | 
O=C(NC1CCCC1)C1CCN(C2CCN(CCCc3ccccc3)CC2)CC1 |  | 0.932
COc1ccccc1CN1CCCC(CN(CCN(C)C)C(=O)c2ccco2)C1 (stereo unspecified) |  | 0.869
O=C(CN1Cc2ccccc2OC(c2ccsc2)C1)NCc1nc(-c2ccccc2)cs1 (stereo unspecified) |  | 0.05
O=C(Nc1ccnn1C1CCN(C(=O)CCn2cnc3ccccc32)CC1)C1CC1 | 0.996 | 
CN(Cc1ccccc1)Cc1cc(C(=O)NCc2cccc(Cl)c2)no1 | 0.89 | 
Cc1ccc(CN(C)c2ccc(C(=O)NCc3noc(C(C)C)n3)cn2)o1 | 1.29 | 

SMILES | bacterial growth OD600 (polymyxin B 1 µg/mL) | bacterial growth OD600 (polymyxin B 0.75 µg/mL)
COc1cc2c(cc1CN1CC[C@@H](N3CCN(C)CC3)[C@H](O)C1)OCO2 | 1.09 | 
CC(NC(=O)CCc1nnc(-c2ccc3c(c2)OCO3)o1)c1ccc(Cl)cc1 (stereo unspecified) | 0.767 | 
O=C(CCc1cn2ccccc2n1)NC1CCCN(CCc2ccccc2)C1 (stereo unspecified) | 1.22 | 
CC(Nc1nc2nonc2nc1N1CCCCCC1)c1cnn(C)c1 (stereo unspecified) | 0.799 | 
CCC1C(=O)NCCN1C(=O)CC1(c2cccc(C(F)(F)F)c2)CC(=O)N(CC)C1=O (stereo unspecified) |  | 0.873
Cc1ccccc1CC(C1CCN(C(=O)c2ccc(N(C)C)cc2)CC1)N(C)C(=O)Cn1cccn1 (stereo unspecified) |  | 0.825
COC1CCN(c2ccc(C(=O)NCCC3COc4ccccc4O3)cn2)CC1 (stereo unspecified) | 0.856 | 
COc1cccc(CCC2CCCN(Cc3ncc[nH]3)C2)c1 (stereo unspecified) |  | 0.715
CCOCC(=O)N1CCC(C2CCN(Cc3cccc(F)c3F)CC2)C1 (stereo unspecified) |  | 0.86
Cc1nc(-c2ccncc2)ncc1C(C)NC(=O)c1cc2ccccc2[nH]1 (stereo unspecified) |  | 0.856
CN1CCCC2(CCN(C(=O)CCCc3ccccc3)C2)C1=O (stereo unspecified) | 0.945 | 
O=C(Nc1ccc(-c2cccc(F)c2)cc1)C1CCCN(C(=O)c2ccoc2)C1 (stereo unspecified) |  | 0.656
O=C(C1CCCN(Cc2nc(Cc3cccc(C(F)(F)F)c3)no2)C1)N1CCOCC1 (stereo unspecified) | 0.925 | 
COc1ccc(C2(C(=O)N3CC[C@@H](N4CCN(C)CC4)[C@H](O)C3)CCCC2)cc1 | 0.927 | 
CC(=O)c1cc(CN2CCC(n3nccc3NC(=O)C3CCCC3)CC2)cs1 |  | 0.825

Source: the supplement of paper PMC12889115
